Test results taken from article PMC8807876.
These are yes or no findings as the source states them, for the method shown. In cells and extracts the contact can be indirect. Binding calls can cover weak binding; strength is not graded here.

Amino acid sequences for entries named in this document (tags omitted). A change or cut given only in a name is not applied to a line headed by its entry.
UniProt Q7Z2Z1: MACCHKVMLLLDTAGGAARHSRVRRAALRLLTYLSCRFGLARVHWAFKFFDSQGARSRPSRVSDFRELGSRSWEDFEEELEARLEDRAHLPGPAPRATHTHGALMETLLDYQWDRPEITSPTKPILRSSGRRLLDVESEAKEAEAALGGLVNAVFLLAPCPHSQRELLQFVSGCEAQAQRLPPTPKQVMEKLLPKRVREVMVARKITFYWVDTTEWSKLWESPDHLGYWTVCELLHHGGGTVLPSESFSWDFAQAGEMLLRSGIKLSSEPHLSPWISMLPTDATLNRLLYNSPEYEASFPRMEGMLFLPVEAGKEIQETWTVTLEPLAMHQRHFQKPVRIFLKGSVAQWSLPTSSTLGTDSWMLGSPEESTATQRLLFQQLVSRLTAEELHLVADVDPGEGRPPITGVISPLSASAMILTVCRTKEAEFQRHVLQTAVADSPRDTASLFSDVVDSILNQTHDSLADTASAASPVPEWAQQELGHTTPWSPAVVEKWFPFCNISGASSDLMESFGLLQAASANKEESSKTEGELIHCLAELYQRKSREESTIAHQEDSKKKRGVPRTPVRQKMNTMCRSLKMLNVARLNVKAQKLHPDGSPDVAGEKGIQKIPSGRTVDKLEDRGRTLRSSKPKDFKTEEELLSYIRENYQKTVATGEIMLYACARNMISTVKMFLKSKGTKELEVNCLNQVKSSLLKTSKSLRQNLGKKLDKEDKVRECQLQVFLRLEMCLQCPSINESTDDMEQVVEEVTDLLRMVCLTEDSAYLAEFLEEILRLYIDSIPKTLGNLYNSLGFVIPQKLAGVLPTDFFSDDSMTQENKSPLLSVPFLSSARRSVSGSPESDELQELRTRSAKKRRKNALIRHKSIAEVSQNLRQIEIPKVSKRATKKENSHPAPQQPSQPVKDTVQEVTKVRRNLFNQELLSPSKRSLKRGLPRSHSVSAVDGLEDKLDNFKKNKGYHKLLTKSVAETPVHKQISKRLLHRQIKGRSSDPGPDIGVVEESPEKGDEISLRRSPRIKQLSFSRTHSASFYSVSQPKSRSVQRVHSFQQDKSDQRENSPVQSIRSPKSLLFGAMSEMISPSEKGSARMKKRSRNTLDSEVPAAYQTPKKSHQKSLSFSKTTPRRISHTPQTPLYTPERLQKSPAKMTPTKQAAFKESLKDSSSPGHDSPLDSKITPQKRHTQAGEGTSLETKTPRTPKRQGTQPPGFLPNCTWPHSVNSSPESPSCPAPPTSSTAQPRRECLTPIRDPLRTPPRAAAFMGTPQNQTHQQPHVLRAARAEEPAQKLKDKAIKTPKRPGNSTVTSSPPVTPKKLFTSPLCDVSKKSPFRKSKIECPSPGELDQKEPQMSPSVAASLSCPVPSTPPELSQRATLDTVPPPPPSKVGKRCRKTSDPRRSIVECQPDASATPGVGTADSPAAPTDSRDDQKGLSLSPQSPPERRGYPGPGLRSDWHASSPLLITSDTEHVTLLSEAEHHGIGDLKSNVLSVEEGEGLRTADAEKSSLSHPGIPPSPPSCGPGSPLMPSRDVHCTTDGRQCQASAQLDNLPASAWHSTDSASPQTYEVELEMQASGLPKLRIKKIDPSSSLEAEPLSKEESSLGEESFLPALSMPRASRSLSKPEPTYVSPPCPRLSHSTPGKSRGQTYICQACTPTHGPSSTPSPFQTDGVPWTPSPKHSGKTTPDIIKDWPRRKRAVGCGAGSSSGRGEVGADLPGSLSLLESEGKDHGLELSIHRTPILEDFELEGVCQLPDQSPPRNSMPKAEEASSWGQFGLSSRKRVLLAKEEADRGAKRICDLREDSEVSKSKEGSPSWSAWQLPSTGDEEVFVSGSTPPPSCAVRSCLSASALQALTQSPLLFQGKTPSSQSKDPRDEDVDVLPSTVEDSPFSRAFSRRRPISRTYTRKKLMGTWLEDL

Experiments:
Assay in all cases: co-IP; Fig S13: GFP-Flag-Treslin/TICRR mutants transiently transfected into 293T together with MTBP; native lysates, anti-GFP nanobody IP in the presence of recombinant Cdk2-cyclin A; immunoblots for GFP, TopBP1 and MTBP
[1] = molecular target: GFP-Flag-Treslin/TICRR-ΔC651 (human) (UniProt Q7Z2Z1)
[2] = molecular target: GFP-Flag-Treslin/TICRR-ΔC853 (human) (UniProt Q7Z2Z1)
[3] = molecular target: GFP-Flag-Treslin/TICRR-ΔCIT/ΔC651 (human) (UniProt Q7Z2Z1)

Measured: binding

B1: MTBP (co-transfected) (protein, UniProt Q96DY7 1-904)
chain: MDRYLLLVIWGEGKFPSAASREAEHGPEVSSGEGTENQPDFTAANVYHLLKRSISASINPEDSTFPACSVGGIPGSKKWFFAVQAIYGFYQFCSSDWQEIHFDTEKDKIEDVLQTNIEECLGAVECFEEEDSNSRESLSLADLYEEAAENLHQLSDKLPAPGRAMVDIILLLSDKDPPKLKDYLPTVGALKHLREWYSAKITIAGNHCEINCQKIAEYLSANVVSLEDLRNVIDSKELWRGKIQIWERKFGFEISFPEFCLKGVTLKNFSTSNLNTDFLAKKIIPSKDKNILPKVFHYYGPALEFVQMIKLSDLPSCYMSDIEFELGLTNSTKQNSVLLLEQISSLCSKVGALFVLPCTISNILIPPPNQLSSRKWKEYIAKKPKTISVPDVEVKGECSSYYLLLQGNGNRRCKATLIHSANQINGSFALNLIHGKMKTKTEEAKLSFPFDLLSLPHFSGEQIVQREKQLANVQVLALEECLKRRKLAKQPETVSVAELKSLLVLTRKHFLDYFDAVIPKMILRKMDKIKTFNILNDFSPVEPNSSSLMETNPLEWPERHVLQNLETFEKTKQKMRTGSLPHSSEQLLGHKEGPRDSITLLDAKELLKYFTSDGLPIGDLQPLPIQKGEKTFVLTPELSPGKLQVLPFEKASVCHYHGIEYCLDDRKALERDGGFSELQSRLIRYETQTTCTRESFPVPTVLSPLPSPVVSSDPGSVPDGEVLQNELRTEVSRLKRRSKDLNCLYPRKRLVKSESSESLLSQTTGNSNHYHHHVTSRKPQTERSLPVTCPLVPIPSCETPKLATKTSSGQKSMHESKTSRQIKESRSQKHTRILKEVVTETLKKHSITETHECFTACSQRLFEISKFYLKDLKTSRGLFEEMKKTANNNAVQVIDWVLEKTSKK
binds: all assays above
